Measurements from PubChem BioAssay AID2551 (National Center for Advancing Translational Sciences (NCATS), 2010).
About 17,000 (5.5%) of roughly 310,000 compounds were called active. Inconclusive means that the source gave no clear call. Such entries were picked first, then a sample of the others. Calls come from the whole dose curve; as a rule, active = well fitted inhibition curve with a large enough effect; inconclusive = small, poorly fitted or top-dose-only effect, or effect the other way; inactive = no such curve, though single readings can be large or run the other way. Potencies beside an inconclusive call are fits to weak or partial responses and may not hold up.
Note: nearly all actives have a fitted effect of over 60% in size.
Potency is the fitted concentration of half-maximal effect.

Chains of the proteins cited; added tags and fusions are not shown. Lines headed by an entry give the natural chain unless they say otherwise; changes in a name come on top.
UniProt P51450: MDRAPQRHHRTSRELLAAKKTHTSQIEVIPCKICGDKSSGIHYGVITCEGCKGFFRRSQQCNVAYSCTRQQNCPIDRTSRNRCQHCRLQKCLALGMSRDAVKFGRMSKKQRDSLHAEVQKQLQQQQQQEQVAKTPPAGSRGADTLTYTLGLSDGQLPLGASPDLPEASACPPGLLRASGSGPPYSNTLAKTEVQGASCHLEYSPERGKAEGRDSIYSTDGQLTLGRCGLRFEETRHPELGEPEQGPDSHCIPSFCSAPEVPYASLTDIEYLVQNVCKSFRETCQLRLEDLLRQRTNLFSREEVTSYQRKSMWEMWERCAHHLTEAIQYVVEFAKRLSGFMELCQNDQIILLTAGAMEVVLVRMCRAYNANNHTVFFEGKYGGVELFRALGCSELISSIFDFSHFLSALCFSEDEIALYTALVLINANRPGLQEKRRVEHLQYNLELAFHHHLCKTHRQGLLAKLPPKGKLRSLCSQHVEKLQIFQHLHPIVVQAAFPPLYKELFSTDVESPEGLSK

The compounds below were run against Nuclear receptor ROR-gamma (Mus musculus) (UniProt P51450) (assay: qHTS for inhibitors of ROR gamma transcriptional activity). Conditions: Drosophila S2 Gal4-RORgamma UAS-luciferase reporter, 20 h; series mostly up to 53.6 µM.
Outline: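 Drosophila S2 cells stably expressing Gal4-DBD/mouse RORγ fusion under metallothionein promoter plus UAS-luciferase; compound 1 h, then 700 uM CuSO4 induction for 20 h at ambient temperature; inhibition read as reduced luminescence.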
In the case of `O=C(CCS(=O)(=O)c1ccc(Br)cc1)Nc1ccc2c(c1)OCO2`, the Potency is reported as inconclusive: 35.5 µM [activator, single point]. With `COCCCNC(=O)c1ccccc1Oc1ccccc1` the Potency was “inactive”. With `Cc1ccc(S(=O)(=O)N2CCN(C(=O)Cc3ccc(S(=O)(=O)N4CCOCC4)s3)CC2)cc1` the Potency was “inactive”. `CC(=O)Nc1c(C#N)c(C(C)(C)C)cn1C` was tested, and the Potency was inconclusive: 6.31 µM [activator, single point]. For `COc1ccc(CCNC(=O)C(=O)NCC2OCCN2S(=O)(=O)c2ccc(F)cc2)cc1OC` (stereo not given), the Potency was “inactive”. With `C=CCOc1ccc2c(OC)c3ccoc3nc2c1OC` the Potency was inconclusive: 11.2 µM [activator, partial curve, poor fit]. `Cc1ccc(Sc2ncccc2COC(=O)NC(C)C)cc1` was tested, and the Potency was inconclusive: 15.8 µM [activator, partial curve, poor fit]. In the case of `Cc1c(NC(=O)C(C)OC(=O)c2c3c(nc4ccccc24)CCC3)c(=O)n(-c2ccccc2)n1C` (stereo not given), the Potency is reported as inconclusive: 4.47 µM [activator, partial curve]. `OC(c1ccccc1)c1nccc2ccccc12` (stereo not given) was tested, and the Potency was active: 12.6 µM. `Nc1cc(=O)[nH]c(SCC(=O)NC2CCCc3ccccc32)n1` (stereo not given) was tested, and the Potency was inconclusive: 0.708 µM [activator, single point]. `Cc1ccc(NC(=O)C(c2ccccc2)C2CCCC2)cc1` (stereo not given) was tested, and the Potency was inconclusive: 11.2 µM [activator, single point]. `COc1ccc(C(NC(=O)c2cccc(F)c2)c2ccccc2)cc1` (stereo not given) was tested, and the Potency was inconclusive: 0.501 µM [activator, full curve]. `Cn1cccc1/C=N/NC(=O)c1ccc(OC(F)(F)C(F)F)cc1` was tested, and the Potency was active: 2 µM. With `C[C@@H](NC(=O)[C@@H]1Cc2ccccc2CN1C(=O)OC(C)(C)C)C(=O)NC1CCCC1` the Potency was “inactive”. `COc1ccc(OCc2cc(C(=O)O)c(C)o2)cc1` was tested, and the Potency was inconclusive: 12.6 µM [inhibitor, partial curve, poor fit]. `Cc1cccc(C)c1NC(=S)/C(=C(\[O-])c1cccs1)[n+]1ccccc1` was tested, and the Potency was inconclusive: 15.8 µM [inhibitor, single point]. In the case of `Cc1ccc2nnc(Cl)n2n1`, the Potency is reported as inconclusive: 35.5 µM [inhibitor, single point]. For `COc1cccc(NS(=O)(=O)c2c(C)cc(C)cc2C)c1`, the Potency was inconclusive: 0.005 µM [inhibitor, full curve, poor fit]. With `CC(C)c1ccc(NC2CCCN(C(=O)c3cccs3)C2)cc1` (stereo not given) the Potency was inconclusive: 35.5 µM [activator, single point]. `Cc1ccc(-n2nnnc2-c2cnn(-c3ccc(F)cc3)c2C(F)(F)F)cc1` was tested, and the Potency was inconclusive: 2.24 µM [activator, full curve]. In the case of `Cc1cc(NC(=O)c2sc(Nc3ccc(F)c(Cl)c3)nc2N)no1`, the Potency is reported as inconclusive: 11.2 µM [activator, partial curve, poor fit]. In the case of `CCn1c(N)c(C(N)=O)sc1=S`, the Potency is reported as inconclusive: 35.5 µM [inhibitor, single point]. In the case of `COC(=O)[C@@]1(Cc2ccccc2)[C@H]2c3cc(C(=O)N4CCCC4)n(Cc4ccc(C)o4)c3C[C@H]2CN1C(=O)c1ccccc1`, the Potency is reported as inconclusive: 35.5 µM [activator, single point]. For `O=C(c1cc(COc2ccc(F)cc2Cl)on1)N1CC[C@@H]2CCCC[C@H]2C1`, the Potency was inconclusive: 12.6 µM [activator, single point]. For `Cc1ccccc1OCCCn1c(=O)sc2ccccc21`, the Potency was active: 2.82 µM. In the case of `COCCNC(=O)/C(C#N)=C1\N=C(N)c2ccccc21`, the Potency is reported as inconclusive: 35.5 µM [inhibitor, single point]. `CCCCNC(=S)NNC(=O)c1cccnc1` was tested, and the Potency was inconclusive: 35.5 µM [inhibitor, single point]. For `c1ccc2c(CCNc3ncnc4nc[nH]c34)cccc2c1`, the Potency was inconclusive: 5.62 µM [activator, full curve]. In the case of `Cc1cccc2sc(N(CCCN(C)C)C(=O)CCS(=O)(=O)c3ccccc3)nc12`, the Potency is reported as active: 10 µM. `CN(c1ccccc1C(=O)Nc1ccc(S(=O)(=O)N2CCCC2)cc1)S(C)(=O)=O` was tested, and the Potency was “inactive”. With `Nc1ccc(N=Nc2ccccc2)c(N)n1` the Potency was inconclusive: 12.6 µM [activator, partial curve]. `CCCOc1ccc(C(=O)Nc2ccc(S(=O)(=O)Nc3cc(C)nc(C)n3)cc2)cc1` was tested, and the Potency was inconclusive: 17.8 µM [activator, partial curve]. For `Cc1cc(C)n2nc(SCC(=O)N/N=C/c3cccc(Br)c3)nc2n1`, the Potency was inconclusive: 35.5 µM [activator, single point]. For `O=C(c1cnccn1)N1CCC2(CCCN(c3cccc(-c4ccccc4)c3)C2)CC1`, the Potency was inconclusive: 11.2 µM [activator, partial curve]. With `C=CCOc1ccc(C(=O)/C=C2/C(=O)Nc3ccccc32)cc1` the Potency was inconclusive: 15.8 µM [inhibitor, single point]. For `COC(=O)c1cc(Sc2c(Cl)cccc2Cl)ccn1`, the Potency was inconclusive: 35.5 µM [inhibitor, single point]. `CC1=C/C(=N\OS(=O)(=O)c2ccccc2)C(C(C)C)=CC1=O` was tested, and the Potency was active: 2.82 µM. With `Cc1ccc(S(=O)(=O)/N=C(/Sc2ccccc2C(=O)O)c2ccccc2)cc1` the Potency was “inactive”. In the case of `COc1ccc(-n2c(=O)c(-c3cccs3)nc3cnc(N4CCNCC4)nc32)cc1`, the Potency is reported as inconclusive: 17.8 µM [inhibitor, single point]. For `CCOCCCNC(=O)CCCn1nc(C)n2c(cc3sccc32)c1=O`, the Potency was “inactive”. In the case of `CC(=O)Nc1ccc(C2=NN(c3ccccc3)C(c3ccccc3)C2)cc1` (stereo not given), the Potency is reported as inconclusive: 35.5 µM [activator, single point]. With `CC[C@@H](C)[C@H](CNC)NC[C@@H](Cc1cccc2ccccc12)NCCc1cccc(C(F)(F)F)c1` the Potency was active: 12.6 µM. In the case of `Clc1ccc(-c2onc3c2CCCC3)cc1`, the Potency is reported as inconclusive: 35.5 µM [activator, single point]. In the case of `CCn1c(SCC(N)=O)nc2cc(S(=O)(=O)N3CCOCC3)ccc21`, the Potency is reported as “inactive”. With `O=C(N/N=C/c1ccc(O)cc1)c1cc(-c2ccc3c(c2)OCO3)n[nH]1` the Potency was inconclusive: 2 µM [activator, partial curve]. `CC(Nc1cc(N2CCN(C(=O)C(C)(C)C)CC2)ccc1[N+](=O)[O-])c1ccccc1` (stereo not given) was tested, and the Potency was “inactive”. In the case of `CCc1ccc(NC(=O)CN2CCc3ccccc3C2)cc1`, the Potency is reported as inconclusive: 5.62 µM [activator, full curve, poor fit]. For `O=C(NCCN1C(=O)S/C(=C\c2ccc(OC(F)F)cc2)C1=O)c1cnccn1`, the Potency was “inactive”. With `CCCCc1ccc(NC(=S)NCCCN2CCOCC2)cc1` the Potency was active: 10 µM. With `CC1CCC(NC(=O)C(Cc2ccccc2)n2cccc2)CC1` (stereo not given) the Potency was inconclusive: 15.8 µM [activator, single point]. For `COc1ccc(-c2nc3ccccc3n2OCC(=O)O)cc1`, the Potency was inconclusive: 35.5 µM [inhibitor, single point]. `CC(C)CC(=O)N1CCN(Cc2ccccc2[N+](=O)[O-])CC1` was tested, and the Potency was “inactive”. For `CC(=O)Nc1ccc(S(=O)(=O)NCCC(=O)Nc2ccc(C)c(Cl)c2)cc1`, the Potency was “inactive”. `O=C(NNC(=S)NC1CCCCC1)c1cccs1` was tested, and the Potency was inconclusive: 1.41 µM [inhibitor, partial curve]. `CCCCCN(C(=O)NC(=O)Nn1cnnc1)S(C)(=O)=O` was tested, and the Potency was “inactive”. `CCN(CC)c1ccc(C(=O)OCC(=O)Nc2sccc2C#N)cc1` was tested, and the Potency was inconclusive: 2 µM [activator, full curve, poor fit]. In the case of `COc1cc(/C=N/Nc2ccccn2)cc(OC)c1O`, the Potency is reported as inconclusive: 14.1 µM [inhibitor, single point]. `CNC(=S)Nc1cccc(C(=O)OC)c1` was tested, and the Potency was inconclusive: 31.6 µM [inhibitor, single point]. `Cc1cc(/C([O-])=C(/C(=S)Nc2ccc(F)cc2)[n+]2ccccc2)c(C)n1-c1ccc(F)cc1` was tested, and the Potency was inconclusive: 35.5 µM [inhibitor, single point]. With `COC(=O)c1ccccc1-c1ccc(/C=N/Nc2nc(N3CCCC3)nc(N3CCCC3)n2)o1` the Potency was inconclusive: 15.8 µM [inhibitor, partial curve, poor fit]. With `COc1ccc2[nH]cc(CCNc3ncnc4ccc(-c5cccc(C#N)c5)cc34)c2c1` the Potency was inconclusive: 31.6 µM [inhibitor, single point]. In the case of `CC(=O)c1cccc(NC(=O)c2cc(-c3ccco3)on2)c1`, the Potency is reported as “inactive”. In the case of `N#Cc1cc(N)ccc1Sc1ccc(Cl)cc1`, the Potency is reported as “inactive”. In the case of `O=C(/C=C/c1ccc([N+](=O)[O-])cc1)Nc1ncc([N+](=O)[O-])s1`, the Potency is reported as inconclusive: 11.2 µM [inhibitor, partial curve, poor fit]. For `CCOC(=O)CN1C(=O)NC2NC(=O)NC21` (stereo not given), the Potency was inconclusive: 5.62 µM [inhibitor, partial curve, poor fit]. `COc1ccc(-c2nnc(NC(=O)c3ccc([N+](=O)[O-])o3)o2)c(OC)c1` was tested, and the Potency was active: 7.08 µM. For `COc1cc(C(=O)NC(=S)Nc2ccc3c(c2)OCO3)cc(OC)c1OC`, the Potency was active: 14.1 µM. In the case of `CN1CCCN(C(=O)c2cc(=O)[nH]c3ccccc23)c2nc3ccccc3nc21`, the Potency is reported as inconclusive: 7.08 µM [activator, partial curve, poor fit]. In the case of `COc1ccc(-c2cn(-c3ccc(C)c(Cl)c3)c(=S)[nH]2)cc1OC`, the Potency is reported as inconclusive: 1 µM [inhibitor, full curve, poor fit]. In the case of `C[C@@H]1CC[C@@]2(OC1)OC1CC3C4CC=C5CC(O)CCC5(C)C4CCC3(C)C1[C@@H]2C` (stereo not given in full), the Potency is reported as “inactive”.
